Data: PubChem BioAssay AID504444 (National Center for Advancing Translational Sciences (NCATS), 2011)
About 7,500 (2.1%) of roughly 360,000 compounds were called active. This list was built around the results that the source calls inconclusive (neither active nor inactive); the mix of calls is not that of the screen. Calls come from the whole dose curve; as a rule, active = well fitted inhibition curve with a large enough effect; inconclusive = small, poorly fitted or top-dose-only effect, or effect the other way; inactive = flat fitted curve, though single readings scatter. Where the call is inconclusive, the potency comes from a doubtful curve fit.
% is set by controls: 0 for no effect and ±100 for the full control effect; potency is the fitted concentration of half-maximal effect.

Test: Nrf2 qHTS screen for inhibitors; note: nearly all actives have a fitted effect of over 60% in size
Conditions: A549 ARE-Fluc reporter, luciferase luminescence, 18-24 h; activity change, negative = inhibition: at 46 µM (top of the series)
Procedure, shortened: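 Quantitative HTS in A549 cells stably bearing an antioxidant response element-firefly luciferase construct. Inhibition of Nrf2-driven transcription was scored by luminescence after 18-24 h of compound exposure at 37 °C.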
For `COc1ccc(C2C(C(=O)/C=C/c3ccco3)=C(O)C(=O)N2CCN2CCOCC2)cc1` (stereo not drawn), the “activity change, negative = inhibition” value was inactive: 5.11%.
For `CCC(=O)Nc1ccc(N2CCN(C(=O)c3ccco3)CC2)c(Cl)c1`, the “activity change, negative = inhibition” value was inactive: -10.1%.
With `CC1CCCN(c2ccc(C(=O)Nc3cccnc3)cc2[N+](=O)[O-])C1` (stereo not drawn) the Potency was inconclusive: 1.3 µM [activator, full curve].
For `O=C1CNC(=O)/C1=C/c1ccc(O)cc1`, the “activity change, negative = inhibition” value was inactive: -6.93%.
In the case of `Cc1cccc(Nc2nc(-c3ccccc3)nc3ccccc23)c1`, the Potency was inconclusive: 13 µM [falling, partial curve].
With `COCCCNC(=S)N1CCN(c2nc(-c3cccc(OC)c3)cs2)CC1` the Potency was inconclusive: 29.1 µM [falling, single point].
For `CCc1c(C)nc2ncnn2c1NC1CCCc2ccccc21` (stereo not drawn), the Potency was inconclusive: 29.1 µM [falling, partial curve, poor fit].
In the case of `C[C@@H]1CN([C@H](C)CO)C(=O)c2cccc(NC(=O)Nc3ccc(C(F)(F)F)cc3)c2O[C@H]1CN(C)S(=O)(=O)c1cccs1`, the Potency was inconclusive: 29.1 µM [falling, single point].
In the case of `COc1ccc2c(C)c(Cc3ccccc3)c(=O)oc2c1OC`, the “activity change, negative = inhibition” value was inactive: -22.1%.
With `O=C(/C=C/c1cccc2ccccc12)c1ccncc1` the Potency was inconclusive: 10.3 µM [falling, partial curve].
In the case of `O=C(Nc1ccccc1Cl)c1ccc(-c2ccccn2)s1`, the Potency was inconclusive: 9.2 µM [activator, partial curve].
With `CN(C1=C(NC(=O)c2ccccc2)C(=O)c2ccccc2C1=O)C1CCS(=O)(=O)C1` (stereo not drawn) the “activity change, negative = inhibition” value was inactive: -17.4%.
With `CC(=O)Nc1cc(-c2nn3c(C)nnc3s2)ccc1C` the “activity change, negative = inhibition” value was inactive: 12%.
With `CCOC(=O)c1sc(NC(=O)CSc2nc(C)cc(C)n2)c(C#N)c1C` the Potency was inconclusive: 23.1 µM [falling, single point].
With `O=C(NCc1ccc2c(c1)OCO2)c1ccc(S(=O)(=O)NCC2CCCO2)cc1` (stereo not drawn) the Potency was inconclusive: 23.1 µM [falling, partial curve, poor fit].
For `COCCNc1nc(N)c([N+](=O)[O-])c(N2CCCCCC2)n1`, the Potency was inconclusive: 29.1 µM [falling, single point].
For `COc1ccc(C2C(C(=O)Nc3ccccc3)=C(C)Nc3nc(-c4ccc(Cl)cc4)nn32)cc1` (stereo not drawn), the Potency was inconclusive: 29.1 µM [falling, single point].
In the case of `CC1Cc2ccccc2N1C(=O)COC(=O)c1ccc(N(C)C)cc1` (stereo not drawn), the “activity change, negative = inhibition” value was inactive: 1.38%.
For `O=c1c2cc(-c3ccccc3)sc2nc2n1N=C(c1ccccc1)CS2`, the Potency was inconclusive: 4.11 µM [activator, partial curve].
With `CN(Cc1cccc(Cl)c1Cl)C(=O)c1cccc(S(=O)(=O)N2CCN(Cc3ccccc3)CC2)c1` the Potency was active: 13 µM.
With `COc1cc(CC(=O)Nc2nc(C)cs2)cc(OC)c1OC` the Potency was inconclusive: 29.1 µM [falling, single point].
For `CCOc1ccc2nc(NC(=O)C3=NNC(=O)CC3)sc2c1`, the Potency was inconclusive: 18.4 µM [activator, partial curve].
With `O=[N+]([O-])c1ccc(N/N=C\c2cccnc2)nc1` the Potency was inconclusive: 4.11 µM [activator, single point].
For `CC1Nc2ncnc(N3CCN(c4ccccc4)CC3)c2N(Cc2ccc(Br)cc2)C1=O` (stereo not drawn), the Potency was inconclusive: 23.1 µM [falling, single point].
With `CCCn1c(SCC(=O)N2CC(=O)Nc3ccccc32)nc2ccccc21` the Potency was inconclusive: 9.2 µM [falling, partial curve].
With `Cc1sc(N(C(=O)CCc2ccccc2)c2ccc(C(=O)O)cc2)nc1-c1ccccc1` the Potency was inconclusive: 29.1 µM [falling, single point].
In the case of `Cc1cc(C(=O)N/N=C/c2cccc3ccccc23)c(C)o1`, the Potency was inconclusive: 29.1 µM [activator, single point].
For `CC(=O)c1sc(NC(=O)c2ccc(C(C)(C)C)cc2)nc1C`, the Potency was inconclusive: 3.26 µM [activator, full curve].
With `COc1cc2c(c(OC)c1OC)C(c1ccc3c(c1)OCO3)CC(=O)O2` (stereo not drawn) the “activity change, negative = inhibition” value was inactive: 14.9%.
In the case of `O=C(Nc1ccc2oc(-c3ccccc3Cl)nc2c1)c1ncn[nH]1`, the Potency was inconclusive: 1.16 µM [activator, partial curve].
In the case of `CCOc1cccc(NC(=O)C2CC(=O)N(C)C(=Nc3ccccc3)S2)c1` (stereo not drawn), the Potency was inconclusive: 29.1 µM [falling, single point].
With `Cc1ccc(OCC(=O)Nc2ccccc2[N+](=O)[O-])c(Br)c1` the Potency was inconclusive: 10.3 µM [activator, partial curve].
With `CN(C)c1ccc(-c2ccccc2)nn1` the Potency was inconclusive: 2.59 µM [activator, partial curve, poor fit].
In the case of `CCOc1c(Br)cc(CNc2ccc(N3CCOCC3)cc2)cc1OC`, the Potency was inconclusive: 32.6 µM [falling, partial curve, poor fit].
With `O=C(O)CSCC(=O)N1CCN(c2ccnc3cc(Cl)ccc23)CC1` the “activity change, negative = inhibition” value was inactive: -6.55%.
For `COC(=O)[C@]1(CC(C)C)N[C@H](c2ccc(SC3CCCCC3)cc2)[C@@H]2C(=O)N(C)C(=O)[C@@H]21`, the Potency was inconclusive: 20.6 µM [falling, single point].
With `O=C(NC(=O)c1csnn1)Nc1ccccc1Cl` the Potency was inconclusive: 1.84 µM [activator, full curve, poor fit].
With `CCN(CCCNC(=O)Cn1ncc2c([nH]c3ccccc32)c1=O)c1cccc(C)c1` the Potency was inconclusive: 18.4 µM [activator, single point].
With `CCc1nnc(NS(=O)(=O)c2ccc(NCc3cc(Cl)cc(Cl)c3O)cc2)s1` the Potency was inconclusive: 20.6 µM [falling, single point].
For `COC(=O)c1scc(-c2ccc(C)cc2)c1S(=O)(=O)N1CCN(c2cccc(Cl)c2)CC1`, the “activity change, negative = inhibition” value was inactive: -22%.
In the case of `COc1ccc(CNC(=O)Cn2cccc2C(=O)c2ccccc2)cc1`, the Potency was inconclusive: 9.2 µM [activator, partial curve, poor fit].
For `Cc1cccc(N/C(N)=N/c2nc(CSc3ccc(Cl)cc3)cc(=O)[nH]2)c1`, the Potency was inconclusive: 0.0046 µM [falling, full curve, poor fit].
For `COc1cc(Nc2nc3c(S(=O)(=O)c4ccccc4)nnn3c3ccc(Cl)cc23)cc(OC)c1`, the Potency was inconclusive: 5.8 µM [activator, single point].
With `O=c1c2oc3ccccc3c2n(Cc2ccccc2Cl)c(=O)n1Cc1ccc2c(c1)OCO2` the “activity change, negative = inhibition” value was inactive: 1.27%.
In the case of `CCc1ccccc1NC(=O)CN(c1cc(C(F)(F)F)ccc1Cl)S(=O)(=O)c1ccccc1`, the Potency was inconclusive: 23.1 µM [falling, single point].
In the case of `CSc1nc2c(c(-c3ccccc3)c1C#N)CCC2`, the “activity change, negative = inhibition” value was inactive: -0.285%.
In the case of `O=C(Nc1ccc(Br)c(C(F)(F)F)c1)c1ccc(C(F)(F)F)cc1`, the Potency was inconclusive: 29.1 µM [falling, single point].
With `NS(=O)(=O)c1cc(C(=O)OCC(=O)Nc2ccc3c(c2)OCO3)ccc1Cl` the Potency was inconclusive: 29.1 µM [activator, single point].
In the case of `COc1ccc(N(C(C)C(=O)N2CCC(Cc3ccccc3)CC2)S(C)(=O)=O)cc1` (stereo not drawn), the Potency was active: 6.51 µM.
With `COc1cccc(N2CCN(CC(=O)c3c(C)[nH]c4ccccc34)CC2)c1` the Potency was active: 11.6 µM.
With `CCOc1ccc(S(=O)(=O)N2CCCC(C(=O)NCc3ccncc3)C2)cc1` (stereo not drawn) the “activity change, negative = inhibition” value was inactive: -24.6%.
With `CC(C)(C)c1ccc(C(=O)Nc2cccc(-n3cnnn3)c2)cc1` the Potency was inconclusive: 6.51 µM [falling, single point].
With `COc1ccccc1N(CC(=O)N(c1ccccc1)C(C)C)S(=O)(=O)c1cccs1` the Potency was inconclusive: 23.1 µM [falling, partial curve].
With `NC(=O)c1ccc(-n2nnnc2SCC(=O)Nc2ccccc2-c2ccccc2)cc1` the Potency was inconclusive: 0.82 µM [falling, partial curve].
With `Cc1ccc2c(c1)N(C(=O)CCC(=O)NCc1ccccc1F)CC(C)O2` (stereo not drawn) the Potency was inconclusive: 29.1 µM [activator, single point].
With `Cc1ccc(N=C2C(=O)Nc3ccccc32)cc1` the “activity change, negative = inhibition” value was inactive: -11.6%.
For `O=C(COc1ccc(Cl)cc1)OCc1cc(=O)n2nc(C3CCCCC3)sc2n1`, the Potency was inconclusive: 14.6 µM [activator, single point].
For `CCOC(=O)c1ccc2c(c1)N(Cc1cc(C)ccc1C)C(=O)c1ccccc1S2(=O)=O`, the Potency was inconclusive: 16.4 µM [falling, single point].
For `CN(CC(=O)Nc1ccccc1Cl)C(=O)c1cccc(S(=O)(=O)N2CCN(Cc3ccccc3)CC2)c1`, the Potency was active: 14.6 µM.
For `CCOc1ccc(-c2nc(C#N)c(NCC(C)C)o2)cc1`, the Potency was inconclusive: 7.31 µM [falling, partial curve].
For `CCCc1cc(C(=O)Nc2ccc(C(=O)c3ccc(C)cc3)cc2)n(C)n1`, the Potency was inconclusive: 20.6 µM [falling, single point].
In the case of `CCn1c(CNC(=O)c2cc(OC)c(OC)c(OC)c2)cc2ccccc21`, the Potency was active: 20.6 µM.
With `CN(Cc1ccccc1)c1nc2c(S(=O)(=O)c3cccc(Cl)c3)nnn2c2ccsc12` the Potency was inconclusive: 18.4 µM [activator, partial curve].
In the case of `CCCNc1c(NS(=O)(=O)c2ccc(Cl)s2)c(=O)oc2ccccc12`, the Potency was inconclusive: 20.6 µM [falling, single point].
For `CCCC(=NC(C)CC)C1=C(O)CC(c2ccccc2)CC1=O` (stereo not drawn), the “activity change, negative = inhibition” value was inactive: -17.9%.
In the case of `Cc1ccc2c(c1)N(C(=O)N1CCC(C(=O)Nc3cccc(F)c3)CC1)CCO2`, the “activity change, negative = inhibition” value was inactive: 1.35%.
For `Cc1ccc(Oc2ccc(Cl)cc2N)cc1`, the Potency was inconclusive: 23.1 µM [activator, single point].
For `COc1ccc(-n2c(=O)c3c(C)c(C)sc3n(Cc3cccc(F)c3)c2=O)c(OC)c1`, the Potency was inconclusive: 13 µM [falling, partial curve].
